Experimental findings from PubChem BioAssay AID1508600 (Functional Genomics Laboratory (NCATS/FGL), 2020) are described below.

About 3,700 (7%) of roughly 53,000 sequences were called active.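 Rule for the calls: active = gene knockdowns whose robust z-score for IL-1 alpha signal is at least 2 or at most -2, so actives lie on both sides; inactive = the rest.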 Some of the results follow.

The nature of the experiment: Components of the Cytosolic LPS Sensing Pathway: Gene Identification via Genome-wide siRNA Screen.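 Note: robust z of the log signal after scaling to non-targeting control siRNA wells of the plate.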 As to conditions: RAW264.7 macrophages, IL-1a HTRF, actives lie on both sides, screened at 100 nM (by protocol), cells primed 5 h with Pam3CSK4 first. In outline:
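IL-1a HTRF of supernatants after 24 hour LipidA transfection of Pam3CSK4-primed (5 hours) RAW264.7 cells, 48h post-siRNA transfection (100 nM). Scores: percent of plate negative-control median, then log-based robust z-score.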
A general note: TR-FRET usually uses a lanthanide donor and a delayed reading to cut background.
On to CCCACAGAACCACACAUUCTT against H2-DMa, for which the z-score is active: 3.11.

For the sequence GCUUGCUAGAGUGAUCUCGTT against Adsl, the z-score was inactive: -0.331.

In the case of GGAAUUAUUCCCAAUCCUATT against Cbln1, the z-score was inactive: 0.204.

As to GGGCAUCAGCAUUUGGUCATT against Med1, the z-score was inactive: 0.698.

For CCUGGAUCAGCAAUCCACATT against Lpxn, the z-score is inactive: -0.503.

With GGAUAGGGAUUGGAGAUAUTT against Stn1, the z-score is inactive: 0.203.

On to “GGAGCUAUUGACACAAGUCTT against E230025N22Rik”, for which the z-score was inactive: 0.00962.

Turning to GCAGAGAGCACAAUAAAGCTT against Chchd6, the z-score was inactive: 1.36.

In the case of GGAGGUGUUGAACAAGUGCTT against Tescl, the z-score is inactive: 1.61.

Regarding CCCUUAAAGGGUAGCAUUUTT against Ncan, the z-score is inactive: 0.837.

As for GGAGUUGACGAAGAUAUGATT against Nsmce2, the z-score is inactive: 0.28.

Regarding GCUACAUCUACCUUAGGCCTT against Olfr1329, the z-score is inactive: 0.584.

As for GGUUGAAAAUUUCAAACAGTT against Btg4, the z-score was inactive: 0.621.

As to GGGCAACACAGGACAUCUATT against Amot, the z-score was inactive: -0.35.

Consider GGCCACCUCUCGAAAGUUUTT against Xirp1, for which the z-score was inactive: -0.731.

Turning to GCACUGUGACGAUACAAGATT against Asb1, the z-score is inactive: -1.17.

In the case of GCUGUUCCUAUUUCAUGACTT against Myo3b, the z-score is inactive: -0.625.

On to GGUCAAUGGCCACAAGUUCTT against Prkce, for which the z-score was inactive: 0.421.

Consider GCACAAGUUCGUGCCAGGUTT against Prf1, for which the z-score was inactive: 0.65.

Regarding GGUUAUAUGGACCCUAAAATT against Aplnr, the z-score is inactive: -0.339.

On to GGCAUUCUGUGAGACACAATT against Exosc10, for which the z-score is inactive: 0.389.

For GGAUUCUUGCACUAUUUAGTT against Cep135, the z-score is inactive: -0.315.

Regarding GCAAGUUUGAGGAUCUAAATT against Gnai2, the z-score is inactive: 0.593.

Take CCGAGAAAAAGCAGAAAUCTT against Psma2: the z-score is inactive: -0.98.

Turning to CCAUAUGUGAUUUGUCUUGTT against Cacnb2, the z-score is inactive: -0.706.

Take GGAAAGCCGUAUAGUUGUATT against Zfp791: the z-score was inactive: -0.154.

Consider GCACUAACCUAUACAUCUCTT against Sorl1, for which the z-score is inactive: 1.33.

As for CGCUUACAUGAACUUCAUATT against Taar9, the z-score was inactive: -1.07.

Turning to CCACAUGAGUGGACCUACGTT against Arid3c, the z-score was inactive: -1.33.

Take UGACACCUUCUCAUUGGCCTT against Rexo1: the z-score was inactive: -1.51.

GCAUUUUCUAGAUGGAAGCTT against Hao1: the z-score was inactive: 0.748.

Regarding GGGUUACUUCAGAUUUUGCTT against Atoh8, the z-score was inactive: -0.939.

Regarding GGACCUUUCCCAAUUCCUUTT against Cyp2e1, the z-score was inactive: 0.744.

For the sequence GGUUUAGACAGACUUUAGATT against Zbtb9, the z-score is inactive: -0.377.

Take GGACGAAGCUCUGAAACACTT against Fbxl2: the z-score was inactive: 1.32.

For the sequence GGCUGUCCUUUUCCUCUUATT against Yipf6, the z-score is inactive: 1.49.

For GGCAUGUAUCUCAACAUGUTT against Fcsk, the z-score was inactive: 0.226.

Take CGUACUAUACUAACACAGATT against Arl5a: the z-score was inactive: 0.391.

Regarding GGGAAAUUUAAAGCCCUCUTT against Olfr1225, the z-score was inactive: 0.488.

Take GUCUCAAAUUUAUCCUGAUTT against Lamtor2: the z-score was inactive: -0.117.

On to GCGACUCCUAGACAGAAAGTT against Golph3l, for which the z-score was inactive: 0.116.

Regarding GGAACAAGUAAAAUUCGUCTT against Tssk2, the z-score was inactive: 1.71.

In the case of CCCUGGCUGUCCUCUAUAATT against Ripply1, the z-score was inactive: -0.767.

Turning to GCUAGUUUGCCUGAAUAUUTT against Kif27, the z-score is inactive: -0.871.

As to CCGAUUGAAAUAUGAAUCCTT against Cuedc1, the z-score is inactive: 1.22.

Take GGUGGCUGUUCUUUUGACGTT against Ptprt: the z-score is inactive: -1.21.

Turning to GGACCUUUGUAUUUCAUUUTT against Abhd14a, the z-score is inactive: 0.503.

As for GGUCGACAGAUCAAGCCUUTT against Psmb3, the z-score is active: -2.18.

With GGUAAACAUGUCUAUGACUTT against Fpr-rs7, the z-score was active: -2.09.

On to GGUCAAGAACAAUUCCAAGTT against Itih4, for which the z-score is inactive: 1.66.

Regarding GGAAUUUCUUCUGAAUGUUTT against Bach2, the z-score is inactive: -1.32.

In the case of GGAAUUCAGUAGGUGGUCUTT against Rab39b, the z-score was inactive: -0.963.

For the sequence CCCUCUCCUAUUCUACAUGTT against Arf3, the z-score was inactive: -0.466.

Consider GGCAUGGAAACUGUUUUGCTT against Olfr677, for which the z-score is inactive: -0.904.

For GAACUACCUGGACUUCCACTT against Cox6b1, the z-score was active: 2.5.

With CCAAGCCUCCAAUGGUCAGTT against Stat6, the z-score was inactive: -0.623.

GGAGUGGAAAAAGUGACCATT against Cox4i2: the z-score is inactive: -0.868.

CCCACAUCCCUAAGUUGUGTT against Kash5: the z-score was inactive: 1.55.

For CCUUCCACCAACAAAAGCCTT against Hsh2d, the z-score is inactive: -0.398.

For the sequence GGAUGCUUACCAAAGGAUATT against Mrps18a, the z-score was inactive: -0.48.

Turning to CCGAGACAUAAAUUUUCCATT against Cphx1, the z-score is inactive: -0.547.

With GGCUCGGAAAGAAAAGAACTT against Ctr9, the z-score is inactive: -1.16.

In the case of GGCCACAGUAAUGGGAAAUTT against Cga, the z-score is inactive: -0.208.

In the case of CCUGUGACUCUAUCCAUCATT against Dsg1c, the z-score was inactive: 0.424.

Regarding CGAAAGUGAUCUUUGGAGCTT against Fpr-rs6, the z-score is inactive: -1.9.

For the sequence CCGAGAACAGUUGAAGAAGTT against Srbd1, the z-score is inactive: 0.174.

As for GGAAGAAAGUGAGCCUUGUTT against Senp6, the z-score is active: -2.14.

With GUGUACGAGCCUACCGUUATT against Cox14, the z-score was inactive: 1.05.

GGAGAGAACUGGAAGAGAGTT against Cwc15: the z-score is inactive: 0.729.
